{
  "source": "patent US20230321106A1",
  "about": "“USE OF TOPICAL BRAF INHIBITOR COMPOSITIONS FOR TREATMENT OF EPIDERMAL GROWTH FACTOR RECEPTOR DOWNSTREAM EFFECTORS - INDUCED CUTANEOUS REACTIONS” (Lutris Pharma Ltd., priority 2020, published 2023)",
  "system": "phosphorylated ERK1/2 (MAPK pathway) in primary adult human epidermal keratinocytes (HEKa)",
  "experiment": "pERK induction in HEKa cells, Western blot (phosphorylated ERK1/2 / total ERK2)",
  "format": "cell-based",
  "settings": "0.3 μM, two hours",
  "method": "Primary HEKa, isolated from adult skin of a single donor and cryopreserved at the end of primary culture (Gibco catalog number C0055C, Thermo Fisher Scientific, Waltham, MA), were cultured in T25 flasks at 37° C., 5% CO2 in growth medium (Epilife™ CF Kit, Gibco) supplemented with 60 μM calcium (Gibco) and HKGS (Gibco). After at least three passages, cells were harvested with trypsin when flask reached 70-80% confluence, and seeded in 10 cm culture dishes (250,000 cells/dish) in 9 ml of growth medium overnight. To analyze the effect of HKGS or a BRAF inhibitor on pERK, cells were starved for 2.5 hours in 5 mL of starvation medium without HKGS, and then individual plates were incubated for two hours with DMSO 0.1%, HKGS, vemurafenib 0.3 μM (0.146 μg/mL), or LUT014 0.3 μM (0.158 μg/mL). To analyze the effects of LUT014 to re-activate pERK in HKGS-activated HEKa cells cultured in an EGFR inhibitor, cells were seeded in 60 mm dishes (120,000 cells/dish) in 4 ml growth medium. […] The signals of phosphorylated ERK1/2 and total ERK2 were quantified using ImageJ software and the phosphorylated ERK1/2/total ERK2 ratio was calculated. For the quantification, equal sized rectangles were drawn around the bands of the phosphorylated ERK1/2 and the total ERK2 and the pixels in each rectangle were measured.",
  "note": "At least one compound was matched to its structure with a doubt left.",
  "data": [
    {"smiles": "CCCS(=O)(=O)Nc1ccc(F)c(C(=O)c2c[nH]c3ncc(-c4ccc(Cl)cc4)cc23)c1F", "note": "[vemurafenib, reference compound]", "values": [
      {"measurement": "increase in pERK, compared with HKGS", "value": "similar"}
    ]}
  ]
}
